One assay concerns the target hu-IL-36α (human) (UniProt Q9UHA7). In words: summary of ELISA and HEK-Blue screening of yeast Fab supernatants. (In general: In an ELISA, binding on a coated surface is turned into a signal by an enzyme label.)
For a further assay, the target named is hu-IL-36γ (human) (UniProt Q9NZH8). Described as above.

Protein sequences, listed by entry. Tags and fused reporters are not part of them. Lines headed by an entry give the natural chain unless they say otherwise; changes in a name come on top.
UniProt Q9UHA7: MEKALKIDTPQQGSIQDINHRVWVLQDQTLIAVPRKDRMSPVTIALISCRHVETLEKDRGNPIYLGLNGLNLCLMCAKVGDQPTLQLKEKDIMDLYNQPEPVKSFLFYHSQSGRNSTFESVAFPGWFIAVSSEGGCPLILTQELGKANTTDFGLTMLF
UniProt Q9NZH8: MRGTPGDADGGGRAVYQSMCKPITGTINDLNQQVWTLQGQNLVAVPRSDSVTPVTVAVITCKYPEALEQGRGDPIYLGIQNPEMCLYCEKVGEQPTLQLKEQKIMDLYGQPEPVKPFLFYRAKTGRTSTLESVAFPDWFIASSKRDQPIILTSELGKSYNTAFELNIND

Among the data in patent US20200199217A1 are binding values, retold here.

These are yes or no findings as the source states them, for the method shown. Some binding calls cover weakened binding; strength is not graded here.

B1: mAb5.0 Fab (Fab, V domains shown)
VH: EVQLLESGGGLVQPGGSLRLSCAASGFTFSTYAMSWVRQAPGKGLEWVSGISGGSGYTYYADSVKGRFTISRDNSKNTLYLQMNSLRAEDTAVYYCARVVTYRDPPASFDYWGQGTLVTVSS
VL: QSVLTQPPSVSGAPGQRVTISCTGSSSNIGAHYDVHWYQQLPGTAPKLLIYGNDNRPSGVPDRFSGSKSGTSASLAITGLQAEDEADYYCQSYDYSLKAYVFGGGTKLTVL
B1: the binding result in the assay with hu-IL-36α (human) and in the assay with hu-IL-36γ (human) was “binds” throughout.
